Data published in publication PMC5320654.
Results are given in words; binding and its absence hold for the method and conditions named. Binding seen in cells or lysates may run through a third protein. Where a sequence is shown, tags or fusion partners need not be part of it.

How the values were obtained:
Assay in all cases: co-IP; FLAG-WDR13 or its FLAG-tagged deletion constructs over-expressed in HEK293, immunocomplex purified with anti-FLAG agarose beads, blots for the partner proteins of the cells (endogenous in Fig. 6a)
[1] = target: T1, FLAG-tagged WDR13 deletion construct FL-193 (UniProt Q91V09)
T1 sequence: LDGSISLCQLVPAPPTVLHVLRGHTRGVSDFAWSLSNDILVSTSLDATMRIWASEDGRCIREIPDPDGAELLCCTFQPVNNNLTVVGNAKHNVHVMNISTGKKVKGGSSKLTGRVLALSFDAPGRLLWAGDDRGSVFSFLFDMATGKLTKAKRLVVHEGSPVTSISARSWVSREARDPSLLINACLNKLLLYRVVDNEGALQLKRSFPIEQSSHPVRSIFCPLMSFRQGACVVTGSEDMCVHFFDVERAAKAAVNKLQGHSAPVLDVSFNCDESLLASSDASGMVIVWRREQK

[2] = target: T2, FLAG-tagged WDR13 deletion construct FL-293 (UniProt Q91V09)
T2 sequence: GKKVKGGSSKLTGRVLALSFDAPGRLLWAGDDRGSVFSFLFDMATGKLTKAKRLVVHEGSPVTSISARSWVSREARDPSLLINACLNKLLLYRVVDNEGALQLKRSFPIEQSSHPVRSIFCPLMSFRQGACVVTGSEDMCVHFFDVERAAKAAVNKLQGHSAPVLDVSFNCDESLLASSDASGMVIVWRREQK

[3] = target: T3, FLAG-tagged WDR13 deletion construct FL-393 (UniProt Q91V09)
T3 sequence: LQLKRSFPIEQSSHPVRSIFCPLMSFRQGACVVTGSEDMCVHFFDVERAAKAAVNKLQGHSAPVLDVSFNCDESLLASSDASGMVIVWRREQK

[4] = target: T4, FLAG-tagged WDR13 deletion construct FL-93 (UniProt Q91V09)
T4 sequence: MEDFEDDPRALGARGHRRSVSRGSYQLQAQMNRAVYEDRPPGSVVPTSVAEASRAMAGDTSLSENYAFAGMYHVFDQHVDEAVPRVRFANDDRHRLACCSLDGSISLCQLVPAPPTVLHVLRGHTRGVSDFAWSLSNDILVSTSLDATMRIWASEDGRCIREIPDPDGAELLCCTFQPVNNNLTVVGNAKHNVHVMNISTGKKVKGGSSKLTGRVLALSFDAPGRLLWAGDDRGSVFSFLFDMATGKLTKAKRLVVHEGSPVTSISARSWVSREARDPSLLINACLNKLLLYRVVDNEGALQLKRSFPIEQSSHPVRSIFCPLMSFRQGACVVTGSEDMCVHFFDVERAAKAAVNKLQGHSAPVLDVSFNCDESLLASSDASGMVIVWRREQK

Measured: binding

NFκB
no binding: all assays above
